Laboratory results as given in PMC12670160, “A drug-repurposing screen of FDA- and EMA-approved drugs identifies two NF-κB inhibitors active against eumycetoma” (Journal of Antimicrobial Chemotherapy, 2025).
Structures can show the parent of a compound that is named as a salt. Hit rate of the full screen: of about 5,300 compounds, about 130 (2.5%) showed an effect of 50% or more. The list shows a part of the results.

Test system: M. mycetomatis strain mm55
Details: primary screen, metabolic activity vs growth control; 96 h, 2 µM; inhibitor

SMILES	% viability
CNC(=O)O[C@H]1COc2ccc(N3CCN(C4COC4)CC3)cc2[C@@H]1NC(=O)c1ccc(F)cc1 [ONC0000827, ly 3000328]	94.11%
OC[C@@H](O)[C@@H](O[C@@H]1O[C@H](CO)[C@H](O)[C@H](O)[C@H]1O)[C@H](O)[C@@H](O)CO [ONC0004170, dlactitol monohydrate]	63.72%
O=S(=O)(NC1CCNCC1)c1cc(S(=O)(=O)c2ccccc2)ccc1C(F)(F)F [ONC0005407, way 316606]	95.75%
NCCC(=O)N[C@@H](Cc1cnc[nH]1)C(=O)O [ONC0002788, carnosine]	115.1%
OCc1ccc(-c2nn(Cc3ccccc3)c3ccccc23)o1 [ONC0000936, yc1]	76.91%
NC(=O)c1cccnc1 [ONC0004155, niacinamide]	69.05%
Nc1nccs1 [ONC0002889, aminothiazole]	91.61%
CC(C)C[C@H](N)C(=O)O [ONC0005412, lleucine]	80.97%
Cn1c(=O)c2c(ncn2CC(O)CO)n(C)c1=O (stereo not drawn) [ONC0000729, dyphylline]	103.6%
CCCc1nc(C(C)(C)O)c(C(=O)OCc2oc(=O)oc2C)n1Cc1ccc(-c2ccccc2-c2nnn[nH]2)cc1 [ONC0003883, olmesartan medoxomil]	72.02%
CCCc1nc(C)c2c(=O)[nH]c(-c3cc(S(=O)(=O)N4CCN(CC)CC4)ccc3OCC)nn12 [ONC0003921, vardenafil hydrochloride]	67.78%
C=C(NC(=O)C(=C)NC(=O)c1csc(C2=N[C@@H]3c4csc(n4)[C@H]4NC(=O)c5csc(n5)[C@H]([C@](C)(O)[C@@H](C)O)NC(=O)[C@H]5CSC(=N5)/C(=C/C)NC(=O)[C@H]([C@@H](C)O)NC(=O)c5csc(n5)[C@]3(CC2)NC(=O)[C@H](C)NC(=O)C(=C)NC(=O)[C@H](C)NC(=O)[C@H]([C@@H](C)CC)N[C@@H]2C=Cc3c([C@H](C)O)cc(nc3[C@H]2O)C(=O)O[C@@H]4C)n1)C(N)=O [ONC0002225, thiostrepton]	89.5%
NCc1c[nH]c(=S)n1[C@H]1CCc2c(F)cc(F)cc2C1 [ONC0000919, nepicastat hydrochloride]	71.78%
O=C(O)CCc1nc2ccccc2[nH]1 [ONC0005334, procodazole]	117.3%
CC(=C(CCO)SSCC1CCCO1)N(C=O)Cc1cnc(C)nc1N (stereo in doubt) [ONC0002347, fursultiamine]	90.21%
C[C@@H]1CC2C3C[C@H](F)C4=CC(=O)C=C[C@]4(C)[C@@]3(F)[C@@H](O)C[C@]2(C)[C@@]1(O)C(=O)COC(=O)C(C)(C)C (stereo partly drawn) [ONC0000418, flumethazone pivalate]	69.31%
CCC1C(O)C2C3CCC(C(C)CCC(=O)O)C3(C)CCC2C2(C)CCC(O)CC12 (stereo not drawn) [ONC0004436, obeticholic acid]	127.4%

SMILES	% viability
CC(=O)[C@@]1(O)CC[C@H]2[C@@H]3C[C@H](C)C4=CC(=O)CC[C@]4(C)[C@H]3CC[C@@]21C [ONC0001078, medroxyprogesterone]	90.02%
CCCCCCCCCCCCCCCC[N+](C)(C)C [ONC0002897, cetrimonium bromide]	96.9%
O=C(NCc1ccc(Oc2ccccc2)cc1)c1nc(-c2cc(Br)c(O)c(Br)c2)no1 [ONC0004397, iowh 032]	153.6%
Cc1c(Cn2c(C)nc3c(C(=O)O)cc(N4CCOCC4)cc32)cccc1C(F)(F)F [ONC0004425, gsk2636771]	93.19%
CCNC(=O)[C@@H]1CCCN1C(=O)[C@H](CCCNC(=N)N)NC(=O)[C@H](CC(C)C)NC(=O)[C@@H](C)NC(=O)[C@H](Cc1ccc(O)cc1)NC(=O)[C@H](CO)NC(=O)[C@H](Cc1c[nH]c2ccccc12)NC(=O)[C@H](Cc1c[nH]cn1)NC(=O)[C@@H]1CCC(=O)N1 [ONC0002202, alarelin acetate]	212.3%
COc1ccc2nc3[nH]nc(C)c3c(NCCOCCO)c2c1 [ONC0003546, sch51344]	79.32%
Clc1cccc(C(c2ccc3[nH]cnc3c2)n2ccnc2)c1 (stereo not drawn) [ONC0001276, liarozole]	96.95%
c1ccc(-c2cnn3cc(-c4ccc(OCCN5CCOCC5)cc4)cnc23)cc1 [ONC0001741, dmh4]	59.96%
O=C(NCNC(=O)NC1C(=O)NC(=O)N1CO)NC1C(=O)NC(=O)N1CO (stereo not drawn) [ONC0002906, imidurea]	53.61%
C[C@@]1(O)[C@H](O)[C@@H](CO)O[C@H]1n1cnc2c(NC3CCCC3)nc(Cl)nc21 [ONC0001394, 2meccpa]	91.96%
CC(C)c1onc(-c2c(Cl)cccc2Cl)c1COc1ccc(/C=C/c2cccc(C(=O)O)c2)c(Cl)c1 [ONC0001405, gw4064]	103.5%
CO[C@@H](C)Cn1c(=O)n(C)c2cnc3ccc(-c4cncc(C(C)(C)O)c4)cc3c21 [ONC0001027, ly3023414]	89.83%
O=C1C2CC=CCC2C(=O)N1SC(Cl)(Cl)Cl (stereo not drawn) [ONC0003351, captan]	76.61%
Nc1nc(Nc2ccc(S(N)(=O)=O)cc2)nn1C(=O)c1c(F)cccc1F [ONC0004695, jnj7706621]	96.52%
CC1=C(C(=O)O)N2C(=O)[C@@H](NC(=O)[C@H](N)c3ccc(O)cc3)[C@H]2SC1 [ONC0000772, cefadroxil]	67.74%
C[C@@H]1[C@H](O)[C@@H](C)/C=C/C=C/CC/C=C/C=C/C=C/C=C/[C@H](O[C@@H]2O[C@H](C)[C@@H](O)[C@H](N)[C@@H]2O)C[C@@H]2O[C@](O)(C[C@@H](O)[C@H](O)CC[C@@H](O)C[C@@H](O)C[C@@H](O)CC(=O)O[C@H]1C)C[C@H](O)[C@H]2C(=O)O [ONC0002036, nystatin]	93.36%

Arranged by formula weight (falling): part of the list above
SMILES	% viability
C=C(NC(=O)C(=C)NC(=O)c1csc(C2=N[C@@H]3c4csc(n4)[C@H]4NC(=O)c5csc(n5)[C@H]([C@](C)(O)[C@@H](C)O)NC(=O)[C@H]5CSC(=N5)/C(=C/C)NC(=O)[C@H]([C@@H](C)O)NC(=O)c5csc(n5)[C@]3(CC2)NC(=O)[C@H](C)NC(=O)C(=C)NC(=O)[C@H](C)NC(=O)[C@H]([C@@H](C)CC)N[C@@H]2C=Cc3c([C@H](C)O)cc(nc3[C@H]2O)C(=O)O[C@@H]4C)n1)C(N)=O [ONC0002225, thiostrepton]	89.5%
c1ccc(-c2cnn3cc(-c4ccc(OCCN5CCOCC5)cc4)cnc23)cc1 [ONC0001741, dmh4]	59.96%
CCCCCCCCCCCCCCCC[N+](C)(C)C [ONC0002897, cetrimonium bromide]	96.9%
